Experiment: Gamma scintigraphy of 99mTc-DTPA radiolabeled treprostinil sodium inhaled via AERx Essence System or Nebu-Tec Optineb nebulizer, two-way crossover, 14 healthy male subjects
Type: in vivo, human
Details: for % loaded dose in mouthpiece, AERx − Nebu-Tec Difference (95% C.I.): difference of LSmeans, monosodium salt; for % loaded dose in mouthpiece: LSmeans
From the text: This was an open label study conducted in a single-center, using a randomized, two-way crossover design. Sixteen healthy adult male subjects were to be enrolled to receive study treatments. Upon provision of written informed consent, each study candidate underwent a pre-study evaluation and screening to determine eligibility to participate.
On each of two dosing days, eligible subjects underwent dosing with ^99mTc-labeled treprostinil sodium using either the AERx Essence System or the Nebu-Tec Optineb nebulizer. Following their initial study dose, subjects underwent a washout period of approximately 48 hours before completing a second (crossover) study dose.
Immediately following each study dose, subjects underwent gamma scintigraphy and multiple samplings of venous blood to characterize treprostinil lung deposition and plasma pharmacokinetics.
Subjects also underwent a Krypton-81m (^81mKr) gas ventilation imaging procedure. This procedure could have been performed on any dosing day followed by a 30 minute washout before any of the aerosol dosing procedures, if there were logistical/scheduling problems, ventilation imaging could have been done after dosing. Alternatively the ^81mKr ventilation scan could have been performed on a separate visit. Additionally transmission images were also acquired this could have been performed on any dosing day prior to any of the aerosol dosing procedures or on a separate visit
A single “bulk” treprostinil sodium formulation (600 μg/mL) was used for both the Nebu-Tec Optineb nebulizer and the AERx Essence. The bulk drug solutions were diluted by the addition of ^99mTc-DTPA (2000 MBq/mL) at a ratio of 19:1, i.e. 0.05 mL of ^99mTc-DTPA was added to 0.950 mL of bulk drug solution. Each mL of the radiolabeled drug solutions therefore contained 100 MBq of ^99mTc-DTPA and 570 μg of treprostinil. The radiolabel ^99mTc as ^99mTc-DTPA was acquired from an approved supplier (i.e., the Medical Physics Department, University Hospital of Wales, Heath, Cardiff [Manufacturers License Number: MS/IMP18523]).
In this study, the radiolabel marker (^99mTc-DTPA) deposition profiles obtained following administration of a radiolabeled treprostinil sodium formulation will be evaluated using gamma to assess the performance for the two delivery systems. Gamma scintigraphy offers a precise and accurate method of evaluating the deposition of an inhaled radiolabeled aerosol in the oropharynx and lung.
To compare the emitted dose, delivered lung dose, and the central-to-peripheral (sC/P) lung deposition of radiolabeled treprostinil sodium delivered via the AERx Essence System versus the Nebu-Tec Optineb nebulizer using gamma scintigraphy.
In addition the following secondary efficacy variables were determined, the dose (μg) of treprostinil deposited in the lung, the percent dose (emitted and loaded) of radiolabeled treprostinil sodium in the oropharyngeal region from both devices, the percent loaded dose remaining in both devices and associated equipment e.g. mouthpiece.
Scintigraphic data were used to determine the fraction of the loaded dose delivered to the lung which was subsequently utilised to estimate the lung dose in terms of μg of Treprostinil. For AERx, the calculation of lung dose was derived by normalising the emitted dose to lung for the fraction (%) of the loaded dose retained post-administration i.e. within the device and dosage forms. The actual dose within the AERx strips (a single dose consisted of two strips) was calculated from the nominal treprostinil concentration adjusted for the actual concentration determined by HPLC assay of the stock radiolabeled drug solutions on each dosing day (see Table 14.2.1.5).
The Optineb device contained a drug reservoir (nebuliser cup) from which each dose (six separate puffs) was metered. To determine the dose available to the subject an in vitro test to collect a single emitted dose (ED) was performed for each device following subject dosing.

SMILES: CCCCC[C@H](O)CC[C@@H]1[C@H]2Cc3cccc(OCC(=O)[O-])c3C[C@H]2C[C@H]1O.[Na+] [treprostinil, (1R,2R,3aS,9aS)-[[2,3,3a,4,9,9a-Hexahydro-2-hydroxyl-1-[(3S)-3-hydroxyoctyl]-1H-benz[f]inden-5-yl]oxy]acetic acid monosodium salt]
- % loaded dose in mouthpiece, AERx − Nebu-Tec Difference (95% C.I.) (listed as Treprostinil): −4.84 (−9.92-0.23) %
- % loaded dose in mouthpiece, AERx − Nebu-Tec Difference (95% C.I.): −4.84%
- Calculated ED (via AERx, two strips, Mean): 28.32 µg
- % loaded dose in mouthpiece (via AERx): 2.35%
- AERx Post Dose (via AERx, Max): 50.10 % LD
- Calculated ED (via AERx, Max): 32.90 µg
- DF Post-dose (via AERx, Max): 22.93 % LD
- Mass balance (via AERx, Max): 105.91%
- Mouth-piece (via AERx, Max): 4.41 % LD
- Total dose retained (via AERx, Max): 72.74 % LD
- AERx Post Dose (retained in device, corrected for attenuation) (via AERx, Mean): 30.04 % LD
- DF Post-dose (dosage forms) (via AERx, Mean): 20.87 % LD
- Mass balance (total radioactivity recovered) (via AERx, Mean): 99.76%
- Mouth-piece (via AERx, Mean): 2.35 % LD
- Total dose retained (via AERx, Mean): 53.25 % LD
- AERx Post Dose (via AERx, Min): 24.64 % LD
- Calculated ED (via AERx, Min): 16.40 µg
- DF Post-dose (via AERx, Min): 17.98 % LD
- Mass balance (via AERx, Min): 91.99%
- Mouth-piece (via AERx, Min): 0.72 % LD
- Total dose retained (via AERx, Min): 45.76 % LD
- % loaded dose in mouthpiece (via Nebu-Tec): 7.19%
- Mass balance (via Optineb, Max): 122.33%
- Mouth-piece (MP) (via Optineb, Max): 36.09 % ND
- Mass balance (total radioactivity recovered) (via Optineb, Mean): 89.37%
- Mouth-piece (MP) (via Optineb, Mean, % of nebulised dose): 7.19 % ND
- Mass balance (via Optineb, Min): 70.47%
- Mouth-piece (MP) (via Optineb, Min): 1.60 % ND
